# Test results reported in article PMC3358251.
# No constants are given. Whether binding was seen depends on the method and setting. Binding seen in cells or lysates may run through a third protein. For some assays here: Binding calls can cover weak binding; strength is not graded here.
# T1: VE-cadherin (bovine (endogenous in BAEC)) (UniProt Q6URK6)
# T1 sequence: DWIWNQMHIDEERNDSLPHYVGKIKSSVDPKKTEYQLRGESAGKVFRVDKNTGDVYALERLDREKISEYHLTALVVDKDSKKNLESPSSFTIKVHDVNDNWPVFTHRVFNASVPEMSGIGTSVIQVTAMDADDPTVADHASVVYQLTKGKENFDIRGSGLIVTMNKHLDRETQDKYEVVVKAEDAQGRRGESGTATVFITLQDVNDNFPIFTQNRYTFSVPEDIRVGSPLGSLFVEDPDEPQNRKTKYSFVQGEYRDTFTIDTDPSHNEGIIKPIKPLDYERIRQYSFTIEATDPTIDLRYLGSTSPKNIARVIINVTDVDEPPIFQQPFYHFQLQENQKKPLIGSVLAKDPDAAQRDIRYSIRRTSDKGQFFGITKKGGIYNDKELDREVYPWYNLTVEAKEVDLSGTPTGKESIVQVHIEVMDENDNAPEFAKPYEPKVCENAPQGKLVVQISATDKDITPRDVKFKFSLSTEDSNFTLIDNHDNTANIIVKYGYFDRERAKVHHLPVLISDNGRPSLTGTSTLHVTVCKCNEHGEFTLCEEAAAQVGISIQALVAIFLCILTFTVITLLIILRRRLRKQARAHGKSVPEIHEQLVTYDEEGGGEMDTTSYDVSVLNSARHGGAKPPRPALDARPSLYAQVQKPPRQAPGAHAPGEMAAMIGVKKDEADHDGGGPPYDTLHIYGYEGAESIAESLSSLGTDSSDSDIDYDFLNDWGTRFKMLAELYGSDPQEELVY
# Legend:
# [1] = molecular target: T1, VE-cadherin (bovine (endogenous in BAEC)); experiment: co-IP; endogenous proteins of BAEC lysates (HEPES lysis buffer pH 7.4, 150 mM NaCl, 1% NP-40, 5 mM EDTA, 300 µM pervanadate); antibody and Dynabeads Protein G, immunoblot; cells non-transduced or transduced with Ad-GFP (baseline), or with Ad-FGFR1DN and Ad-SHP2 (rescue)
# [2] = molecular target: T1, VE-cadherin (bovine (endogenous in BAEC)); experiment: condition: only in cells transduced with Ad-FGFR1DN; co-IP; as a1, but BAEC transduced with Ad-FGFR1DN (FGF signaling suppressed)
# [3] = molecular target: SHP2 (bovine (endogenous in BAEC)); experiment: as above
# [4] = molecular target: SHP2 (bovine (endogenous in BAEC)); experiment: co-IP; endogenous proteins of BAEC lysates (HEPES lysis buffer pH 7.4, 150 mM NaCl, 1% NP-40, 5 mM EDTA, 300 µM pervanadate); antibody and Dynabeads Protein G, immunoblot; cells non-transduced or transduced with Ad-GFP (baseline), or with Ad-FGFR1DN and Ad-SHP2 (rescue)
binding [1],binding [2],binding [3],binding [4],Molecule
binds,no binding,–,–,SHP2 (bovine (endogenous in BAEC)) (enzyme)
binds,–,–,–,p120-catenin (bovine (endogenous in BAEC))
–,–,no binding,binds,"VE-cadherin (protein, UniProt Q6URK6 46-783) DWIWNQMHIDEERNDSLPHYVGKIKSSVDPKKTEYQLRGESAGKVFRVDKNTGDVYALERLDREKISEYHLTALVVDKDSKKNLESPSSFTIKVHDVNDNWPVFTHRVFNASVPEMSGIGTSVIQVTAMDADDPTVADHASVVYQLTKGKENFDIRGSGLIVTMNKHLDRETQDKYEVVVKAEDAQGRRGESGTATVFITLQDVNDNFPIFTQNRYTFSVPEDIRVGSPLGSLFVEDPDEPQNRKTKYSFVQGEYRDTFTIDTDPSHNEGIIKPIKPLDYERIRQYSFTIEATDPTIDLRYLGSTSPKNIARVIINVTDVDEPPIFQQPFYHFQLQENQKKPLIGSVLAKDPDAAQRDIRYSIRRTSDKGQFFGITKKGGIYNDKELDREVYPWYNLTVEAKEVDLSGTPTGKESIVQVHIEVMDENDNAPEFAKPYEPKVCENAPQGKLVVQISATDKDITPRDVKFKFSLSTEDSNFTLIDNHDNTANIIVKYGYFDRERAKVHHLPVLISDNGRPSLTGTSTLHVTVCKCNEHGEFTLCEEAAAQVGISIQALVAIFLCILTFTVITLLIILRRRLRKQARAHGKSVPEIHEQLVTYDEEGGGEMDTTSYDVSVLNSARHGGAKPPRPALDARPSLYAQVQKPPRQAPGAHAPGEMAAMIGVKKDEADHDGGGPPYDTLHIYGYEGAESIAESLSSLGTDSSDSDIDYDFLNDWGTRFKMLAELYGSDPQEELVY"
